Laboratory results reported in PubChem BioAssay AID220 (DTP/NCI, 2004).
The list is a part of this screen's results and no random one: it is rich in T/C values a quarter to a half above the control, in often repeated tests (any T/C) and in doses without a T/C. Other doses and runs of a compound stand elsewhere. T/C gives the treated animals as a percentage of the vehicle group. Schedules are NCI's codes, taken here to give the interval after Q, in days (D) or hours (H), and the number of doses after X. Some T/C values are negative: the treated tumours shrank. Some T/C values are followed by the survivors on the day toxicity was checked, most often the fifth; where none is given, no animal had died by that day. Some entries give survivors of the animals treated and no T/C: the source files T/C as zero there, which appears to mark a toxic dose or a test without result, not a measured value. Survivors were counted at the toxicity check, usually on the fifth day, unless a day is given; later deaths do not show. Some doses were run more than once; the results are listed from low to high.

Tested on: CD8F1 mice, subcutaneous mammary adenocarcinoma, T/C%
Assay: NCI In Vivo Anticancer Drug Screen. Data for tumor model Mammary Adenocarcinoma CD8F1 (subcutaneous) in CD8F1
Conditions: higher T/C = larger tumour
Summary of the method: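 Antitumor activity is assessed in transplantable-tumor mice by comparing the treated group with a vehicle-treated control group. Survival or tumor size serves as the measure, reported as T divided by C.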

With O=C(O)CC(NC(=O)CP(=O)(O)O)C(=O)O.[NH-]C1CCCCC1[NH-].[Pt+2] (stereo unspecified) the T/C (T/C endpoint: median tumor weight change, dose: 25.0 mg/kg/injection, schedule: Q01DX001 (ip), vehicle: dextrose, evaluated on day 26) was 75 % of control, the T/C (T/C endpoint: median tumor weight change, dose: 25.0 mg/kg/injection, schedule: Q01DX001 (ip), vehicle: dextrose, evaluated on day 29) was 148 % of control and the T/C (T/C endpoint: median tumor weight change, dose: 25.0 mg/kg/injection, schedule: Q01DX001 (ip), vehicle: dextrose, evaluated on day 32) was 41 % of control. For the same compound, the T/C (T/C endpoint: median tumor weight change, dose: 25.0 mg/kg/injection, schedule: Q01DX001 (ip), vehicle: dextrose, evaluated on day 33) was 52 % of control, the T/C (T/C endpoint: median tumor weight change, dose: 50.0 mg/kg/injection, schedule: Q01DX001 (ip), vehicle: dextrose, evaluated on day 26) was 24 % of control and the T/C (T/C endpoint: median tumor weight change, dose: 50.0 mg/kg/injection, schedule: Q01DX001 (ip), vehicle: dextrose, evaluated on day 29) was 89 % of control. For the same compound, the T/C (T/C endpoint: median tumor weight change, dose: 50.0 mg/kg/injection, schedule: Q01DX001 (ip), vehicle: dextrose, evaluated on day 32) was 36 % of control [9 of 10 alive on day 32], the T/C (T/C endpoint: median tumor weight change, dose: 50.0 mg/kg/injection, schedule: Q01DX001 (ip), vehicle: dextrose, evaluated on day 33) was 37 % of control and the T/C (T/C endpoint: median tumor weight change, dose: 100.0 mg/kg/injection, schedule: Q01DX001 (ip), vehicle: dextrose, evaluated on day 26) was -23 % of control [9 of 10 alive on day 26]. The T/C (T/C endpoint: median tumor weight change, dose: 100.0 mg/kg/injection, schedule: Q01DX001 (ip), vehicle: dextrose, evaluated on day 29) was 5 % of control [7 of 10 alive on day 29], the T/C (T/C endpoint: median tumor weight change, dose: 100.0 mg/kg/injection, schedule: Q01DX001 (ip), vehicle: dextrose, evaluated on day 33) was -2 % of control and the survivor count (T/C endpoint: median tumor weight change, dose: 100.0 mg/kg/injection, schedule: Q01DX001 (ip), vehicle: dextrose) was 3 of 10 on day 32. The survivor count (T/C endpoint: median tumor weight change, dose: 200.0 mg/kg/injection, schedule: Q01DX001 (ip), vehicle: dextrose) was 0 of 10 on day 26, 0 of 10 on day 29, 0 of 10 on day 32, 1 of 10 on day 33 and the survivor count (T/C endpoint: median tumor weight change, dose: 400.0 mg/kg/injection, schedule: Q01DX001 (ip), vehicle: dextrose) was 0 of 10 on day 33.

In the case of Cc1cc(N(CC(C)Br)CC(C)Br)ccc1N=Nc1ccccc1C(=O)O (stereo unspecified), the survivor count (T/C endpoint: median tumor weight (est.), dose: 50.0 mg/kg/injection, schedule: Q07DX005 (ip), vehicle: saline with Tween-80) was 0 of 10 on day 30.

CCNC(=O)[B-][N+](C)(C)C was tested, and the survivor count (T/C endpoint: median tumor weight change, dose: 800.0 mg/kg/injection, schedule: Q01DX001 (ip), vehicle: Klucel (hydroxypropylcellulose) (HPC)) was 0 of 10 on day 36.

For O=C1c2cccc3cc([N+](=O)[O-])cc(c23)C(=O)N1CCN1CCCC1, the survivor count (T/C endpoint: median tumor weight change, dose: 125.0 mg/kg/injection, schedule: Q01DX001 (ip), vehicle: saline with Tween-80) was 2 of 10 on day 32, the survivor count (T/C endpoint: median tumor weight change, dose: 225.0 mg/kg/injection, schedule: Q01DX001 (ip), vehicle: saline with Tween-80) was 1 of 10 on day 26 and the survivor count (T/C endpoint: median tumor weight change, dose: 250.0 mg/kg/injection, schedule: Q01DX001 (ip), vehicle: saline with Tween-80) was 0 of 10 on day 32. The survivor count (T/C endpoint: median tumor weight change, dose: 500.0 mg/kg/injection, schedule: Q01DX001 (ip), vehicle: saline with Tween-80) was 0 of 10 on day 32.

For Nc1nc(/C=C(/O)c2ccccc2)c2ncn(C3OC(CO)C(O)C3O)c2n1 (stereo unspecified), the T/C (T/C endpoint: median tumor weight change, dose: 50.0 mg/kg/injection, schedule: Q01DX001 (ip), vehicle: distilled water + Tween-80, evaluated on day 36) was 128 % of control, the survivor count (T/C endpoint: median tumor weight change, dose: 100.0 mg/kg/injection, schedule: Q01DX001 (ip), vehicle: distilled water + Tween-80) was 4 of 10 on day 38 and 5 of 10 on day 36 and the survivor count (T/C endpoint: median tumor weight change, dose: 200.0 mg/kg/injection, schedule: Q01DX001 (ip), vehicle: distilled water + Tween-80) was 0 of 10 on day 38 and 1 of 10 on day 36. For the same compound, the survivor count (T/C endpoint: median tumor weight change, dose: 400.0 mg/kg/injection, schedule: Q01DX001 (ip), vehicle: distilled water + Tween-80) was 0 of 10 on day 36 and 0 of 10 on day 38 and the survivor count (T/C endpoint: median tumor weight change, dose: 800.0 mg/kg/injection, schedule: Q01DX001 (ip), vehicle: distilled water + Tween-80) was 0 of 10 on day 36 and 5 of 10 on day 38.

Ic1ncnc2c1ncn2C1CCCO1 (stereo unspecified) was tested, and the T/C (T/C endpoint: median tumor weight (est.), dose: 25.0 mg/kg/injection, schedule: Q07DX005 (ip), vehicle: Klucel (hydroxypropylcellulose) (HPC), evaluated on day 30) was 131 % of control.

For CC(=O)C(=O)O.CC(=O)C(=O)O.[NH-]C1CCCCC1[NH-].[Pt+2] (stereo unspecified), the survivor count (T/C endpoint: median tumor weight change, dose: 125.0 mg/kg/injection, schedule: Q01DX001 (ip), vehicle: dextrose) was 0 of 10 on day 34, the survivor count (T/C endpoint: median tumor weight change, dose: 250.0 mg/kg/injection, schedule: Q01DX001 (ip), vehicle: dextrose) was 1 of 10 on day 34 and the survivor count (T/C endpoint: median tumor weight change, dose: 500.0 mg/kg/injection, schedule: Q01DX001 (ip), vehicle: dextrose) was 0 of 10 on day 34. For the same compound, the survivor count (T/C endpoint: median tumor weight change, dose: 1000.0 mg/kg/injection, schedule: Q01DX001 (ip), vehicle: dextrose) was 0 of 10 on day 34.

In the case of O=C(Nc1nncs1)c1ccncc1, the T/C (T/C endpoint: median tumor weight (est.), dose: 12.5 mg/kg/injection, schedule: Q07DX005 (ip), vehicle: saline with Tween-80, evaluated on day 30) was 128 % of control.
